This is an account of results in paper PMC3161794.

Protein sequences, listed by entry. Tags and fused reporters are not part of them.
UniProt P27361: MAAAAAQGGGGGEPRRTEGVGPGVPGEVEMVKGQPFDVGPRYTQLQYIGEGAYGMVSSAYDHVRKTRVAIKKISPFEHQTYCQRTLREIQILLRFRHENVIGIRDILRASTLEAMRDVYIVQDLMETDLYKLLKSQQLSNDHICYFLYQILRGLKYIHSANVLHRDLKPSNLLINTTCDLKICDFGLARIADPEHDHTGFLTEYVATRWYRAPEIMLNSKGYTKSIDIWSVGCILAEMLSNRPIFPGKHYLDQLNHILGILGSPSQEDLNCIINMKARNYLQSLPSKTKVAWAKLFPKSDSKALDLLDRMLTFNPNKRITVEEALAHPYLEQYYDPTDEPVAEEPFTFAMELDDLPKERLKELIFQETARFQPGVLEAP
UniProt P63086: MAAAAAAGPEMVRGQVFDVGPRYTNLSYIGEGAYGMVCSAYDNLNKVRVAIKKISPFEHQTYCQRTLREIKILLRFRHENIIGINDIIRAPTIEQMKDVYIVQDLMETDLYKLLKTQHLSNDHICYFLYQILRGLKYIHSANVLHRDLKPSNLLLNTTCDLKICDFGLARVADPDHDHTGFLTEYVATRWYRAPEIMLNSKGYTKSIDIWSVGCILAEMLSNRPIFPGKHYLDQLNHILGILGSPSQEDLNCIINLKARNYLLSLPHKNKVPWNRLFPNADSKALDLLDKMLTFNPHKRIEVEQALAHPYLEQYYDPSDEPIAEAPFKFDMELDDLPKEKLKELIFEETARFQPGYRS

Assay [1] deals with T1, FLAG-tagged mitochondrial aconitase (mAcon-FLAG) (human) (UniProt Q99798).
T1 sequence: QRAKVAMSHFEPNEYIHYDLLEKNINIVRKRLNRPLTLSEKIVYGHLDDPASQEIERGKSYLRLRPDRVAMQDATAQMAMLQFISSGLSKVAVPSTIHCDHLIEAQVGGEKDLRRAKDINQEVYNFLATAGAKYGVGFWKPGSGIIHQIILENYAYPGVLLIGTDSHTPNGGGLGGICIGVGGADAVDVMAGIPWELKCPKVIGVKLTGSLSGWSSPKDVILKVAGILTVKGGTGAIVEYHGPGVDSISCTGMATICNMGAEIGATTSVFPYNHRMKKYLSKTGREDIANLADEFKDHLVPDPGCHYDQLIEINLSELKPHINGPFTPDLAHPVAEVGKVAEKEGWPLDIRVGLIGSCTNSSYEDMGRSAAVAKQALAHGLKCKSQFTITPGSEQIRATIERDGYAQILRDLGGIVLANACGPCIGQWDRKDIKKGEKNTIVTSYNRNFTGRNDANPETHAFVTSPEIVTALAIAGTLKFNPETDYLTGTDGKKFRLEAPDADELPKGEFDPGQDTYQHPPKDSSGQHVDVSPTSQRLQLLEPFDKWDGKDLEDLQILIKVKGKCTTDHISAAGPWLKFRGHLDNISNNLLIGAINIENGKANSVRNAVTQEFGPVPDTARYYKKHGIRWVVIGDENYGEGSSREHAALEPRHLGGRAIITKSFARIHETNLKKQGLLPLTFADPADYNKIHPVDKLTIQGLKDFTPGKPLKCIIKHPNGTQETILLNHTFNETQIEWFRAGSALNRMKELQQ
Put plainly: co-IP; data not shown; told within the paragraph on immunoprecipitation of epitope-tagged proteins co-expressed in HEK293T cells.

Assay [2] concerns the target T2, FLAG-tagged cytosolic aconitase (cAcon-FLAG) (human) (UniProt P21399).
T2 sequence: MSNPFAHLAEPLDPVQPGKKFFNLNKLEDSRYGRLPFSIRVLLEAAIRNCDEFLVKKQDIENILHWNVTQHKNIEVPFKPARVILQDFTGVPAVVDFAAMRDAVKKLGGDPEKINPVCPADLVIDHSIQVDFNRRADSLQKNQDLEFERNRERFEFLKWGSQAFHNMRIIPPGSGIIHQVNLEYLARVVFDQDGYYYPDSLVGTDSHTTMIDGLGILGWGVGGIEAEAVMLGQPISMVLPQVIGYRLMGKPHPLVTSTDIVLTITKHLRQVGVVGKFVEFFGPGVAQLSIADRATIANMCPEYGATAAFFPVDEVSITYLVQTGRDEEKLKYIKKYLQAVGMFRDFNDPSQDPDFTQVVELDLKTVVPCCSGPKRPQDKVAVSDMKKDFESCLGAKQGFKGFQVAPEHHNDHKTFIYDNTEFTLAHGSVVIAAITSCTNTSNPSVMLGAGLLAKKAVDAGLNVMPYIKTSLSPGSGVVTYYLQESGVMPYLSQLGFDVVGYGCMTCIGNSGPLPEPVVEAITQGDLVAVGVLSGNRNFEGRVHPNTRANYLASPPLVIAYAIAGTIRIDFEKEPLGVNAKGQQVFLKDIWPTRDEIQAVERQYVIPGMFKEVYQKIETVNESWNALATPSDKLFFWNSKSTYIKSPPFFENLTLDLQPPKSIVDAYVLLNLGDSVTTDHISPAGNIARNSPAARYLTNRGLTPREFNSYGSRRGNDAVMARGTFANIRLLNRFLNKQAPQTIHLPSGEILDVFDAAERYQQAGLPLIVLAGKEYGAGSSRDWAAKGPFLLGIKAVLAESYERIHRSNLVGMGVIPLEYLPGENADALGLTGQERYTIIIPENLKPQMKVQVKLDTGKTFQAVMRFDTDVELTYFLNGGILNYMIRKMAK
Put plainly: co-IP; ERK2 and FLAG-tagged aconitase coexpressed in HEK293T; NP-40 extracts incubated with M2 agarose FLAG beads 2 hours at 4°C; immunoblot for total ERK1/2 and FLAG; cells ±100 ng/ml EGF after serum starvation.

These are yes or no findings as the source states them, for the method shown. Binding seen in cells or lysates may run through a third protein. Some results given as binding are weak or reduced against the parent protein; the word gives no strength. Sequences can lack the tags named with a protein.

Consider “ERK1 (pcDNA3-T7-ERK1) (from UniProt P27361 1-379) (enzyme)”, for which, in assay [1], the binding result was “binds”. On to “ERK2 WT (pcDNA3-HA-ERK2 wt) (from UniProt P63086 1-358) (enzyme)”, for which the binding entry in assay [2] was “binds”.
